This is an account of results in PubChem BioAssay AID256 (DTP/NCI, 2004).

The list is a part of this screen's results and no random one: it gathers tests that were run many times, whatever their T/C, doses with no T/C, and many T/C values between a quarter and a half above the control. Further doses and runs are listed elsewhere. T/C gives the treated animals as a percentage of the vehicle group. Some doses have a count of surviving animals in place of a T/C: the source holds a T/C of zero for them, seemingly a mark for toxic or unscored doses. Some doses without a T/C left all or most animals alive at the check, yet need not have been tolerated: the source hardly ever lists a survival T/C far under the control, and the zero likely stands for such cases as well. Survivors were counted at the toxicity check, usually on the fifth day, unless a day is given; later deaths do not show. Schedules are NCI's codes, read here as Q, the interval in days (D) or hours (H), X, the number of doses. Some entries hold several experiments; the results are listed from low to high. For survival time, the PubChem record calls one and a half times the control and up active, and a quarter to a half above the control has no call in these data; cut-offs in other NCI protocols can differ. Some T/C values are followed by the survivors on the day toxicity was checked, most often the fifth; without a count, all were alive then.

The assay concerns CD2F1 mice, L1210 leukemia ip, survival T/C. Put plainly: NCI In Vivo Anticancer Drug Screen. Data for tumor model L1210 Leukemia (intraperitoneal) in CD2F1 (CDF1) mice. The note with it: higher T/C = longer survival. An outline of the steps: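 Mice carrying a transplanted tumor received test compound or vehicle alone. The value is the measurement in the treated group divided by that in the vehicle-treated control group.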

Where [1] appears, read: T/C endpoint: mean survival time, dose: 300.0 mg/kg/injection, schedule: Q01DX001 (ip), vehicle: saline.
Where [2] appears, read: T/C endpoint: mean survival time, dose: 100.0 mg/kg/injection, schedule: Q04DX002 (ip), vehicle: saline with Tween-80.
Setting [3] is: T/C endpoint: mean survival time, dose: 200.0 mg/kg/injection, schedule: Q04DX002 (ip), vehicle: saline with Tween-80.
The mark [4] stands for this setting: T/C endpoint: mean survival time, dose: 400.0 mg/kg/injection, schedule: Q04DX002 (ip), vehicle: saline with Tween-80.
Setting [5] is: T/C endpoint: mean survival time, dose: 200.0 mg/kg/injection, schedule: Q01DX009 (ip), vehicle: saline with Tween-80.
The mark [6] stands for this setting: T/C endpoint: mean survival time, dose: 400.0 mg/kg/injection, schedule: Q04DX003 (ip), vehicle: saline with Tween-80.

`C(/C=C\c1ccccc1)=Nc1ccccc1`: the survivor count is given as 1 of 6 (T/C endpoint: mean survival time, dose: 200.0 mg/kg/injection, schedule: Q01DX001 (ip), vehicle: saline sonified) and 0 of 6 (T/C endpoint: mean survival time, dose: 400.0 mg/kg/injection, schedule: Q01DX001 (ip), vehicle: saline sonified).
With `C=CCN(CC=C)P(=O)(N(CC=C)CC=C)N1CC1`, the survivor count is given as 5 of 6 (T/C endpoint: mean survival time, dose: 25.0 mg/kg/injection, schedule: Q01DX015 (ip), vehicle: saline) and 3 of 6 (T/C endpoint: mean survival time, dose: 37.5 mg/kg/injection, schedule: Q01DX015 (ip), vehicle: saline).
For the molecule `O=Cc1c2ccccc2cc2ccccc12`, under setting [1], the T/C is 134 % of control.
For `NC(=S)NC(=S)Nc1ccc(Cl)cc1`, under setting [2], the T/C was 125 % of control [2 of 3 alive]. For the same molecule, the survivor count reads like this: under setting [3], 0 of 3 and 1 of 3; under setting [4], 0 of 3.
For the molecule `[Cl][Pt+2][Cl].[NH-]C(CO)C([NH-])CO` (stereo unspecified), for the setting “T/C endpoint: median survival time, dose: 10.0 mg/kg/injection, schedule: Q04DX003 (ip), vehicle: water”, the T/C is 125 % of control. The survivor count is 4 of 6 (T/C endpoint: median survival time, dose: 25.0 mg/kg/injection, schedule: Q04DX003 (ip), vehicle: distilled water + Tween-80); 0 of 6 (T/C endpoint: median survival time, dose: 50.0 mg/kg/injection, schedule: Q04DX003 (ip), vehicle: distilled water + Tween-80); 0 of 6 (T/C endpoint: median survival time, dose: 100.0 mg/kg/injection, schedule: Q04DX003 (ip), vehicle: distilled water + Tween-80); 0 of 6 (T/C endpoint: median survival time, dose: 200.0 mg/kg/injection, schedule: Q04DX003 (ip), vehicle: distilled water + Tween-80).
Regarding `O=C(O)C(/C=C/c1ccccc1)c1ccccc1` (stereo unspecified), the survivor count under setting [5] is 3 of 6.
For the molecule `ClC1(Cl)Cc2ccccc21`, the survivor count is 4 of 6 (T/C endpoint: median survival time, dose: 400.0 mg/kg/injection, schedule: Q01DX005 (ip), vehicle: saline with Tween-80) and 0 of 6 (T/C endpoint: median survival time, dose: 800.0 mg/kg/injection, schedule: Q01DX005 (ip), vehicle: saline with Tween-80).
On to `O=C(C[n+]1ccc2ccccc2c1)c1ccccc1`, for which the survivor count is on record as 0 of 6 (T/C endpoint: mean survival time, dose: 100.0 mg/kg/injection, schedule: Q01DX009 (ip), vehicle: saline with Tween-80); 0 of 6 (T/C endpoint: mean survival time, dose: 100.0 mg/kg/injection, schedule: Q04DX003 (ip), vehicle: saline sonified); 0 of 6 under setting [5]; 0 of 6 (T/C endpoint: mean survival time, dose: 400.0 mg/kg/injection, schedule: Q01DX009 (ip), vehicle: saline with Tween-80).
Take `O=NN(Cc1cccnc1)Cc1cccnc1`: under “T/C endpoint: mean survival time, dose: 300.0 mg/kg/injection, schedule: Q01DX001 (ip), vehicle: water”, the survivor count is reported as 0 of 6.
For `CN(C)N=Nc1ccc(Cl)cc1C(N)=O`, the survivor count is 5 of 6 (T/C endpoint: mean survival time, dose: 150.0 mg/kg/injection, schedule: Q01DX009 (ip), vehicle: Klucel (hydroxypropylcellulose) (HPC)); 2 of 6 and 4 of 6 (T/C endpoint: mean survival time, dose: 300.0 mg/kg/injection, schedule: Q01DX009 (ip), vehicle: Klucel (hydroxypropylcellulose) (HPC)).
Regarding `O=NN1C(=O)C2CC3CC(C2)CC1C3`, the survivor count by setting is: (T/C endpoint: mean survival time, dose: 25.0 mg/kg/injection, schedule: Q04DX003 (ip), vehicle: acetone) 6 of 6; (T/C endpoint: mean survival time, dose: 50.0 mg/kg/injection, schedule: Q04DX003 (ip), vehicle: acetone) 2 of 6.
Take `O=C(C=C(C(F)(F)F)C(F)(F)F)c1cccc([N+](=O)[O-])c1`: the survivor count is recorded as 2 of 6 (T/C endpoint: mean survival time, dose: 50.0 mg/kg/injection, schedule: Q04DX003 (ip), vehicle: saline with Tween-80); 3 of 6 (T/C endpoint: mean survival time, dose: 100.0 mg/kg/injection, schedule: Q04DX003 (ip), vehicle: saline with Tween-80); 1 of 6 (T/C endpoint: mean survival time, dose: 200.0 mg/kg/injection, schedule: Q04DX003 (ip), vehicle: saline with Tween-80); 0 of 6 under setting [6].
`O=C(O)Cc1ccccc1C(=O)O.[Pb]`: the survivor count runs as follows: under setting [5], 6 of 6; under setting [6], 6 of 6.
`Cc1cc(N=Nc2ccc(S(=O)(=O)[O-])cc2)cc(C(=O)[O-])c1[OH2+].Cc1cc(N=Nc2ccc(S(=O)(=O)[O-])cc2)cc(C(=O)[O-])c1[OH2+].NC1CCCCC1N.[Na+].[Pt+4]`: the T/C is 149 % of control (T/C endpoint: median survival time, dose: 3.12 mg/kg/injection, schedule: Q04DX003 (ip), vehicle: saline with Tween-80); 140 % of control (T/C endpoint: median survival time, dose: 3.12 mg/kg/injection, schedule: Q04DX003 (ip), vehicle: saline); 148 % of control (T/C endpoint: median survival time, dose: 50.0 mg/kg/injection, schedule: Q04DX003 (ip), vehicle: saline). The survivor count (T/C endpoint: median survival time, dose: 100.0 mg/kg/injection, schedule: Q04DX003 (ip), vehicle: saline with Tween-80) is recorded as 6 of 6 and the survivor count (T/C endpoint: median survival time, dose: 200.0 mg/kg/injection, schedule: Q04DX003 (ip), vehicle: saline with Tween-80) is 1 of 6.
Turning to `CC1=Cc2ccc(C)cc2C(=O)C1=O`, the survivor count is, setting by setting: (T/C endpoint: mean survival time, dose: 6.25 mg/kg/injection, schedule: Q04DX002 (ip), vehicle: saline with Tween-80) 1 of 3; (T/C endpoint: mean survival time, dose: 100.0 mg/kg/injection, schedule: Q01DX001 (ip), vehicle: saline with Tween-80) 0 of 6; (T/C endpoint: mean survival time, dose: 200.0 mg/kg/injection, schedule: Q01DX001 (ip), vehicle: saline with Tween-80) 0 of 6; (T/C endpoint: mean survival time, dose: 400.0 mg/kg/injection, schedule: Q01DX001 (ip), vehicle: saline with Tween-80) 0 of 6.
With `CCN(CC)c1cc[c]([Hg][O]C(C)=O)cc1`, the survivor count was 0 of 3 (T/C endpoint: mean survival time, dose: 25.0 mg/kg/injection, schedule: Q04DX002 (ip), vehicle: saline with Tween-80); 0 of 3 (T/C endpoint: mean survival time, dose: 50.0 mg/kg/injection, schedule: Q04DX002 (ip), vehicle: saline with Tween-80); 0 of 3 under setting [2].
As for `[B-][N+]12CN3CN(CN(C3)C1)C2`, the survivor count (T/C endpoint: mean survival time, dose: 150.0 mg/kg/injection, schedule: Q01DX001 (ip), vehicle: saline) is on record as 1 of 6 and the survivor count under setting [1] was 0 of 6.
Take `CCCC(CCC)NCCO`: the survivor count under setting [1] is on record as 0 of 6.
As to `CCOc1ccc(OCC)c(NC(=O)Nc2cccc(Cl)c2)c1`, the survivor count runs as follows: under setting [3], 3 of 3; under setting [4], 3 of 3.
For the molecule `Nc1nc(/C=C(/O)c2ccccc2)c2ncn(C3OC(CO)C(O)C3O)c2n1` (stereo unspecified), the T/C runs as follows: (T/C endpoint: mean survival time, dose: 50.0 mg/kg/injection, schedule: Q01DX005 (ip), vehicle: distilled water + Tween-80) 129 % of control; (T/C endpoint: mean survival time, dose: 100.0 mg/kg/injection, schedule: Q01DX005 (ip), vehicle: distilled water + Tween-80) 137 % of control [4 of 6 alive]; (T/C endpoint: median survival time, dose: 200.0 mg/kg/injection, schedule: Q01DX009 (ip), vehicle: distilled water + Tween-80) 133 % of control [4 of 6 alive]. The survivor count was 0 of 6 and 2 of 6 (T/C endpoint: mean survival time, dose: 200.0 mg/kg/injection, schedule: Q01DX005 (ip), vehicle: distilled water + Tween-80); 0 of 6 (T/C endpoint: mean survival time, dose: 400.0 mg/kg/injection, schedule: Q01DX005 (ip), vehicle: distilled water + Tween-80); 0 of 6 (T/C endpoint: mean survival time, dose: 400.0 mg/kg/injection, schedule: Q01DX009 (ip), vehicle: distilled water + Tween-80).
Regarding `C[N+]1(C)CCC(c2ccccc2)(c2ccccc2)C(=O)C1`, under setting [1], the survivor count is 0 of 6.
`c1ccc2c[n+](CCCCCCCCCC[n+]3ccc4ccccc4c3)ccc2c1`: the survivor count (T/C endpoint: mean survival time, dose: 16.0 mg/kg/injection, schedule: Q01DX001 (ip), vehicle: saline) is 6 of 6.
